In US20210261671A1:
Changes are numbered by the printed parent chain. No constants are given. Whether binding was seen depends on the method and setting. Some results given as binding are weak or reduced against the parent protein; the word gives no strength.

Protein sequences, listed by entry. Tags and fused reporters are not part of them. Lines headed by an entry give the natural chain unless they say otherwise; changes in a name come on top.
UniProt P36888: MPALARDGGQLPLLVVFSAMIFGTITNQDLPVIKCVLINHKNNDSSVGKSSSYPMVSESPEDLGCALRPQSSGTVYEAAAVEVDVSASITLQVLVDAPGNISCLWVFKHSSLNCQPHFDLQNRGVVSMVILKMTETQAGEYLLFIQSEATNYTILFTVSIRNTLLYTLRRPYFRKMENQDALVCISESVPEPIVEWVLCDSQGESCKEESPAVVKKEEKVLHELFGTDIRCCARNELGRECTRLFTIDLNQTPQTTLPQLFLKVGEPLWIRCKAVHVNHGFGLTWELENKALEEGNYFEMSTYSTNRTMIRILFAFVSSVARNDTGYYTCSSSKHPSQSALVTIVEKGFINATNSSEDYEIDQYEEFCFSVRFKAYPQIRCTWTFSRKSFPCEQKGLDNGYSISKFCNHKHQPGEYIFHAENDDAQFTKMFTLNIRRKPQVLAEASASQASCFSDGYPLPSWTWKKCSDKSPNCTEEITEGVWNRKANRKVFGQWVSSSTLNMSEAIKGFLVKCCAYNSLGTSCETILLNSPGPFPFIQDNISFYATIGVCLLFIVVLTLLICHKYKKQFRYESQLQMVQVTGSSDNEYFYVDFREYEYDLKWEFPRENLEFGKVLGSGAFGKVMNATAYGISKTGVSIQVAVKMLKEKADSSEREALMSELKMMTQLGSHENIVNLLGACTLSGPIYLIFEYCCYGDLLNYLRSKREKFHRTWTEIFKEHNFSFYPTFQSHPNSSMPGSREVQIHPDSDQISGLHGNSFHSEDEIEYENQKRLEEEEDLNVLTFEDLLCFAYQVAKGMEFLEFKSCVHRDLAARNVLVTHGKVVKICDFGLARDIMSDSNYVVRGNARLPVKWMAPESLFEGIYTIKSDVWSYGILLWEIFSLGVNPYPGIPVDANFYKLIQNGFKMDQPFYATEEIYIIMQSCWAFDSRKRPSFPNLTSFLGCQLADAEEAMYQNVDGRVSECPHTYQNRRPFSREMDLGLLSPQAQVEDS

B1: FLL823 (VHH)
VHH: QVQLQESGGGVVQVGGSLRLSCAASGGTFGYYAVGWFRQAPGKEREFVAAVTWNGAYLYSDPVKGRFTISRDNAKNTVYLQMNSLKSEDTAVYYCGLDRWSAVVESTPSTRGQGTQVTVSS
B2: FLL190 (VHH)
VHH: QVQLQESGGGLVQAGGSLTLSCTASGSTFSINHFSWYRQAPGKQRELVAFISSDGVSIDVESVKGRFTISGDNDKNTAYLQMNGLKPEDTAVYYCYYRGFWGQGTQVTVSS
B3: FLL43 (VHH)
VHH: B2 VHH with A14P, S35A, V56R, I58T, F100S
B4: FLL76 (VHH)
VHH: QVQLQESGGGLVQAGGSLRLSCAASGGAFSSYVMGWFRQAPGKEREFVAAVISWSGRITDYADSVKGRFSISRDNAKSTVYLQMNNLKPEDTAVYYCAAKTGMYIDLRTSTFDYWGQGTQVTVSS
B5: FLL177 (VHH)
VHH: QVQLQESGGGLVQTGGSLRLSCAASGSTFSRNTMGWFRQAPGKERVFVLGISWSGIRSYYLDSAKARFTISRDNAKNTVYLQMNSLRPEDTAVYYCAAQEGSSPGPYKYWGQGTQVTVSS
B6: FLL45 (VHH)
VHH: QVQLQESGGGLVQAGGSLRLSCAASGGTFSSSAMGWFRQAPGKEREFVATITQNDVPTYYTHSVKGRFTISRDNAKNTMYLQMNSLKPEDTAVYYCAQRVAQASGWRTTIKDYGYWGQGTQVTVSS
B7: FLL39 (VHH)
VHH: QVQLQESGGGLVQAGGSLRLSCAASGLTSSTYRMAWFRQAPGKEREFAAGISYSADSGGSTNYADSVKGRFTISRDNAKNTVYLQMSSLKPEDTAVYYCAAGRYSGTYNSPYSSSYVYWGQGTQVTVSS
B8: FLL822 (VHH)
VHH: QVQLQESGGGSVQAGGSLRLSCTASGRTFTDYTMGWFRQAPGKEREFMLGISSNGYRRYYTGSMKDRFTISRDNVKKTVYLQMNDLKPEDTAVYYCAASEDHGAPRYDYWGQGTQVTVSS
B9: FLL178 (VHH)
VHH: QVQLQESGGGLVQPGGSLRLSCAASGFTFSDYAMSWVRQAPGKGLEWVSGISSGGYKIGYTDSTKGRFTISRDNAKNTLYLQMNSLTAEDTAVYYCAKGTQWSWSLRDNTSRGQGTQVTVSS
B10: FLL27 (VHH)
VHH: B9 VHH with A23K, D31S, T87N, S105A, N109S
B11: FLL15 (VHH)
VHH: QVQLQESGGGLVQAGGSLSLSCAASEGTISHAAMGWFRQAPGKERQFVAYDTWTGGSTNYADSVKDRFTITGDHAKNTVYLQMNSLKPEDTGVYYCAVRGRYSASYTYTNPASYKYWGQGTQVTVSS
B12: FLL173 (VHH)
VHH: QVQLQESGGGLVQAGGSLRLSCATSGRTFNLYRVGWFRQAPGKEREFVARITWSADITQYTDSVKGRFTISRDNAKNTVYLQMNSLKPEDTAIYYCATTLRKSSGIYHTDDYDYWGQGTQVTVSS

Biological target: human FLT3 protein (human) (UniProt P36888)
Test: colorimetric ELISA, periplasmic extract

binding, binds:
B1
B2
B3
B4
B5
B6
B7
B8
B9
B10
B11
B12
